Laboratory results: US6933261B2, “2,4,5-Trisubstituted phenylketoenols” (Bayer Aktiengesellschaft, priority 1995, dated 2005)
Some results were stated once for a whole list of compounds, not compound by compound.

Tested on: two-spotted spider mite (Tetranychus urticae)
Assay: Tetranychus test (OP-resistant/dipping treatment)
Type: in vivo
Settings: after 13 days, active compound concentration 0.1%, dipped bean plants

Compound	destruction
Cc1cc(C)c(C2=C(OC(=O)C(C)C)C3(CCC(C)CC3)NC2=O)cc1C (single isomer, unassigned) [Example I-1-b-2]	at least 98%
Cc1cc(C)c(C2=C(OC(=O)C(C)C)C3(CCCCC3)OC2=O)cc1C [Example I-2-b-2]	at least 98%
